Primary screen of a compound library

Amino acid sequences for entries named in this document (tags omitted). Residues count along the entry.
UniProt P9WPC5, whole entry: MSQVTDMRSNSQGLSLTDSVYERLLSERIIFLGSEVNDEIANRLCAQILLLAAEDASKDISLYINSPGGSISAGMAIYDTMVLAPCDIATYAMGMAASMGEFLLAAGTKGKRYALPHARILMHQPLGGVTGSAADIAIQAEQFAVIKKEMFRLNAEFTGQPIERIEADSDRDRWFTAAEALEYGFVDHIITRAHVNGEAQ
UniProt P9WPC3, whole entry partner: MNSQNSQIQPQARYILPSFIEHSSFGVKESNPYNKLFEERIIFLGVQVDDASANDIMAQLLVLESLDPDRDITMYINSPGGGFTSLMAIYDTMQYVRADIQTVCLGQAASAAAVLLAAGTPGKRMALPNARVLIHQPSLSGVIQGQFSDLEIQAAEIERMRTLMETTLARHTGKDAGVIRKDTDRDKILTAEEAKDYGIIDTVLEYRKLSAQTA
UniProt I6X8D2, whole entry: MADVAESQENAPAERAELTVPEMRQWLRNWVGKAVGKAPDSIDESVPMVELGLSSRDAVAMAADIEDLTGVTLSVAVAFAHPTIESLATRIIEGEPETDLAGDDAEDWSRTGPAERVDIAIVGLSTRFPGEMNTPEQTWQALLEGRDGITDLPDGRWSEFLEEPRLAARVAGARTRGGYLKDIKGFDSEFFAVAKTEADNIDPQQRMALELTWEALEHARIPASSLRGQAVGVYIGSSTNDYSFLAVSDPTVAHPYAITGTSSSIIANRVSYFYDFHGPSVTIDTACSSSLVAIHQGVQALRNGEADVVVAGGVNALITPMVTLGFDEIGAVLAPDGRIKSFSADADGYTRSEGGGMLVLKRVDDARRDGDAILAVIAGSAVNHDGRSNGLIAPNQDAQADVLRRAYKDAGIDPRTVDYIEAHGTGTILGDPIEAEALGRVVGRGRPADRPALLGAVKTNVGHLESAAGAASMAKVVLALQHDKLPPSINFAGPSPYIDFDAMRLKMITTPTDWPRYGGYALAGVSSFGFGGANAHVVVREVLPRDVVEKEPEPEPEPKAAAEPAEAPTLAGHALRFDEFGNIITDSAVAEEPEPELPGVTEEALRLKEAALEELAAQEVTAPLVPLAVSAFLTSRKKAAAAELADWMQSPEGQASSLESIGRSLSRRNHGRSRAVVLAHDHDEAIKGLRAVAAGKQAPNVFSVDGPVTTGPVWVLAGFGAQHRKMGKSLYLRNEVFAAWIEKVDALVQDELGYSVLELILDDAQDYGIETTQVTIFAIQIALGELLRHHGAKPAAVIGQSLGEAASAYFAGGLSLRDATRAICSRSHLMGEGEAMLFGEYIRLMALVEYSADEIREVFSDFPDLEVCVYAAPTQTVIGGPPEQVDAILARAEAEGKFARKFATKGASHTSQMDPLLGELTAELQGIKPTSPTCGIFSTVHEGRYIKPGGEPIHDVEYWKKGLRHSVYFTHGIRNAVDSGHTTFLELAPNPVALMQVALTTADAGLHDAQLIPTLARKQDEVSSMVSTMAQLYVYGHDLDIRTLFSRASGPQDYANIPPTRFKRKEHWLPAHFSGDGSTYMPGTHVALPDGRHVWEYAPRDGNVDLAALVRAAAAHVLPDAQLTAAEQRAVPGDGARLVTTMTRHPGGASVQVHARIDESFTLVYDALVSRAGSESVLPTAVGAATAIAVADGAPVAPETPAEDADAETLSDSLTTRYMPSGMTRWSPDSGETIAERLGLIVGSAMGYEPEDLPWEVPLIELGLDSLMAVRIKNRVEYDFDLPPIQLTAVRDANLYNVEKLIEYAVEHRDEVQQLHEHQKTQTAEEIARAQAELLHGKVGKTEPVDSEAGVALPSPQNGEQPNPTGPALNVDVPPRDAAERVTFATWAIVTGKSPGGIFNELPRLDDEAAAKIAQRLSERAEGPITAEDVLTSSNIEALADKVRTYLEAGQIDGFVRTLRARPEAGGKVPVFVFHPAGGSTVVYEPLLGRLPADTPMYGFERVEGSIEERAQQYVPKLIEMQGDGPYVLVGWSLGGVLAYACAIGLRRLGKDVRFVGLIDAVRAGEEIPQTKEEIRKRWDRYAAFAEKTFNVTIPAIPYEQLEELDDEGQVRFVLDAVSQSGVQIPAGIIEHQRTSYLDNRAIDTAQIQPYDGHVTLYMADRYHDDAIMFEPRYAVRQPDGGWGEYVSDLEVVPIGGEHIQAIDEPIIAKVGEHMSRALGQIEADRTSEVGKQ
UniProt P9WNZ1, whole entry: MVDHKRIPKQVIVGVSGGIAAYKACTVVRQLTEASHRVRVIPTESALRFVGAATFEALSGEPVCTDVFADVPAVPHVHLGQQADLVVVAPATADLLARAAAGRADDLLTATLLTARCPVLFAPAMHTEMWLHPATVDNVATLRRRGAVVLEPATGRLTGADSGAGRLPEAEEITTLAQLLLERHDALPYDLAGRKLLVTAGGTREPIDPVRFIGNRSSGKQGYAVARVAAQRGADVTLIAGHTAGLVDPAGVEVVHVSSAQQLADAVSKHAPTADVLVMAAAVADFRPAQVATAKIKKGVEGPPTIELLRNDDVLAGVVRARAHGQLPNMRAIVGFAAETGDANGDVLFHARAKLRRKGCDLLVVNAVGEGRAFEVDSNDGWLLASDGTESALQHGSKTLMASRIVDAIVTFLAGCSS
UniProt A4I591, 1-473: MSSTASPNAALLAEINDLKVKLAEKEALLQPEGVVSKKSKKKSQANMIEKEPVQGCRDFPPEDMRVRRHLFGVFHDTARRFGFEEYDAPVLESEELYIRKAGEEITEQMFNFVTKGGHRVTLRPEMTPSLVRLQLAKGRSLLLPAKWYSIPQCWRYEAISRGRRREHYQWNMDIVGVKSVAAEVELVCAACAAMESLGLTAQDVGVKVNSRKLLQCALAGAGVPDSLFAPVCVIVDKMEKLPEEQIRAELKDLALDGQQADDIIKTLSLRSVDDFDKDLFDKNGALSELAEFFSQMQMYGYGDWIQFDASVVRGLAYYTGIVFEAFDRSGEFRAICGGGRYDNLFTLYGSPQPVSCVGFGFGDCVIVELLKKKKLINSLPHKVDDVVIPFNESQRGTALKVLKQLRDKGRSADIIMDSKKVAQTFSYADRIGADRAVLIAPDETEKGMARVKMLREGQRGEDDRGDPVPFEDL
UniProt Q4DA54, 1-478: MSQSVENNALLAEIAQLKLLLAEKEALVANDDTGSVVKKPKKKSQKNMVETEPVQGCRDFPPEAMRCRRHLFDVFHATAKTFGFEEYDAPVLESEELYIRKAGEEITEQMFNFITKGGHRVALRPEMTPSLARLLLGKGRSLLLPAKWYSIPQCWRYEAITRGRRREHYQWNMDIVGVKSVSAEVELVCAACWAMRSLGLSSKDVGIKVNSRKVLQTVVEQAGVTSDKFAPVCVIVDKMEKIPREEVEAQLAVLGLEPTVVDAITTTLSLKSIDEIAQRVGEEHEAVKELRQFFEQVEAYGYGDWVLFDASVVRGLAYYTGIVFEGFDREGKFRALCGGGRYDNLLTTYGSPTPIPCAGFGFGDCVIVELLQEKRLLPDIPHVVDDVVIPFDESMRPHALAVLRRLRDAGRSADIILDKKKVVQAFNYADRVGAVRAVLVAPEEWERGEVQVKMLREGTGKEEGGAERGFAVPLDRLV

A: 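Protease assay of ClpP1P2, read by the AMC dye that it sets free. Target: ClpP1P2, Mycobacterium tuberculosis (UniProt P9WPC5 and UniProt P9WPC3). Compounds at 50 µM. Higher reads as stronger inhibition, judged from the few compounds that gave an IC50. Most other retested compounds had strongly negative values. About 69,000 compounds were tested under these conditions; 0.015% (about 10) showed 50% or more at least once.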
B: 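Polyketide synthase Pks13, Mycobacterium tuberculosis (UniProt I6X8D2). Enzyme assay of the thioesterase domain of polyketide synthase 13; the read-out is not stated. Tested at 30 µM. The record gives no direction; the compounds picked for IC50 retests had high values, so higher reads as stronger inhibition. About 67,000 compounds were tested under these conditions; 0.46% (about 300) showed 50% or more at least once.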
C: 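Coenzyme A biosynthesis protein CoaBC, Mycobacterium tuberculosis (UniProt P9WNZ1). Enzyme assay of CoaBC with a phosphate dye (Biomol Green) read at 650 nm. Concentration: 30 µM. Direction is inferred from only a few compounds that gave an IC50; most scored high, so higher reads as stronger inhibition. Most strong results did not repeat in a second test. About 67,000 compounds were tested under these conditions; 0.06% (about 40) showed 50% or more at least once.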
D: 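Histidine-tRNA ligase, Leishmania infantum (UniProt A4I591). Enzyme assay of histidyl-tRNA synthetase; the read-out is not stated. Compounds at 30 µM. Higher reads as stronger inhibition (inferred: compounds with an IC50 in retests scored well above the rest). The assay is labelled LdHisRS but filed under L. infantum. Of about 69,000 compounds tested this way, about 410 (0.6%) reached 50% or more in at least one test.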
E: 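Enzyme assay of histidyl-tRNA synthetase; the read-out is not stated. Target: Histidine-tRNA ligase, Trypanosoma cruzi CL Brener (UniProt Q4DA54). Compounds at 30 µM. Direction is inferred from retests: higher values go with stronger inhibition. About 69,000 compounds were tested under these conditions; 0.045% (about 31) showed 50% or more at least once.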

Results are given as percent effect.
The record does not define 0% and 100%; most values in the screen are far below 50% and negative numbers occur (in some assays of this library far below -100).
The compounds are a random part of those screened.
A dash means the value is not listed here; it may have been measured.

compound,A,B,C,D,E
COc1cc(C2SCC(=O)Nc3[nH]ncc32)cc(OC)c1OC (centres unmarked),-4.945%,-9.586%,0.8861%,12.5%,2.484%
CC(NC(=O)c1coc(COc2cccc(F)c2)n1)c1nnc(N)s1 (centres unmarked),10.77%,-21.56%,3.738%,53.95%,15.22%
COc1ccc2c(c1)OC1(CCN(Cc3ccc(C)cc3)CC1)CC2=O,-12.51%,-8.27%,5.583%,3.96%,6.818%
COc1ccccc1CC(NC(=O)N1CCC[C@@H]1CO)C(C)C (some centres unmarked),3.921%,-,0.319%,8.333%,6.863%
Cc1ccc(-n2nnc(C(=O)NS(C)(=O)=O)c2C2CC2)cc1,9.391%,-3.678%,12.14%,12.31%,-2.682%
CCC1CN(C(=O)Cc2coc(-c3ccccc3)n2)CCO1 (centres unmarked),-9.357%,-16.88%,0.1218%,11.83%,7.738%
CN(Cc1ccc(F)cc1)CC1(O)CCN(C(=O)c2cccs2)C1 (centres unmarked),14.82%,-10.24%,-2.663%,6.186%,6.667%
CN(CC(=O)N1CCN(c2cnccn2)CC1)c1ccc(Cl)cn1,-12.79%,-9.159%,5.97%,10.2%,3.077%
O=C(Nc1ccccc1)[C@H]1O[C@H](CCN2CCNCC2)CC[C@@H]1O,-4.777%,-30.35%,14.34%,24.32%,1.493%
O=S(=O)(CCCNCCn1cccn1)c1ccccc1,-8.927%,-0.481%,0.6329%,-3.614%,-1.22%
CCS(=O)(=O)c1ccc2oc([C@H]3CCN(Cc4ccncc4)C3)nc2c1,4.339%,-18.49%,-34.77%,16.22%,-2.488%
Cn1cccc1C(=O)N1CCC2(CCCN(CC3CC3)C2=O)C1 (centres unmarked),-6.09%,-30.11%,3.03%,16.13%,3.061%
COc1c[nH]c(C(=O)N2CCN(c3ccc(Cl)cc3)CC2)cc1=O,23.51%,-13.43%,6.84%,16.48%,8.247%
Cc1nonc1C(=O)N1CCCC(c2ncncc2-c2ccncc2)C1 (centres unmarked),8.812%,-25.01%,0.7772%,8.029%,1.639%
Cc1ccc(-c2cn3c(n2)CO[C@@H](CNCc2cnn(C)c2)C3)cc1,-12.93%,5.91%,-9.934%,4.054%,0%
CCCn1nccc1-c1nccnc1CC1CCN(C(C)=O)C1 (centres unmarked),-16.49%,-3.336%,0.4854%,14.29%,6.513%
CN1CCN(Cc2cn3c(n2)CNCC3)CC1,15.4%,-13.79%,-3.74%,-5.882%,0.9804%
Cc1cccc(C(=O)N2CCC(C(=O)c3cc(F)ccc3F)CC2)n1,-39.77%,-9.638%,4.439%,2.655%,6.122%
COC1CN(C(=O)CC2CCCC2)CCC(=O)N(C)c2ccccc21 (centres unmarked),10.6%,-24.74%,-1.695%,18.37%,7.865%
CS(=O)(=O)N1CCCC1CS(=O)(=O)c1ccccc1 (centres unmarked),-14.72%,-1.623%,1.453%,8.696%,6%
N#CC1CCCN(c2nc(-c3ccccc3)nc3c2CCNCC3)C1 (centres unmarked),-16.07%,13.35%,-37.2%,1.905%,7.438%
COc1ccc(C2=Nn3c(CCN)nnc3-c3ccccc3C2)cc1,-4.205%,-59.43%,10.51%,47.5%,27.33%
CCCc1n[nH]c(C2CN(C(=O)c3ccco3)CCO2)n1 (centres unmarked),-1.593%,-3.656%,7.846%,-140.9%,0.7576%
CCNC(=O)[C@@H]1C[C@H](N)CN1C(=O)C1(c2ccc(OC)cc2)CCCC1,7.979%,-7.767%,11.63%,19.54%,6.186%
CSCCCNC(=O)C(c1cccc(F)c1)N(C)C (centres unmarked),-8.14%,-5.588%,2.292%,16.8%,-1.508%
Cc1nc(NC(=O)NC2CC(=O)N(C(C)C)C2)nn1C(C)C (centres unmarked),-8.326%,-26.68%,1.205%,13.43%,5.319%
O=C(Cc1ccc2c(c1)CCC2)N1CCN(c2cnccn2)CC1,-10.75%,15.54%,7.653%,12.73%,8.187%
Cc1nnsc1CN(C)C(=O)CCn1cnc2ccccc21,2.798%,-12.53%,-,10.83%,11.84%
CC(C)CC1COCCN1C(=O)Cc1cccs1 (centres unmarked),-4.193%,-15.08%,0%,2%,9.639%
CCc1nc(C2CCCN2C(=O)c2ccc3c(c2)nnn3C)no1 (centres unmarked),1.589%,-8.012%,-1.567%,-3.448%,1.695%
Cc1ccccc1Oc1ncccc1CNC1CCC1,-4.884%,-18.29%,3.433%,8.197%,-4.651%
Cc1ccccc1OCCN1CCCC(c2cc(C(N)=O)[nH]n2)C1 (centres unmarked),-10.09%,-6.974%,1.567%,5.172%,-2.825%
CCN1C(=O)CCCC12CCCN(C(=O)c1ccoc1)C2 (centres unmarked),1.38%,-22.73%,2.326%,12.28%,9.677%
O=C(NC1CC1)N1Cc2[nH]nc(COCC3CC3)c2C1,2.125%,-30.06%,13.68%,22.12%,4.301%
O=C(Nc1nc2c(s1)CN(S(=O)(=O)C1CC1)CC2)c1ccsc1,-15.08%,6.488%,3.308%,28.21%,-3.614%
CC(C)COCCC(=O)Nc1cc(-n2nnnc2C2CC2)ccc1F,-8.877%,-16.36%,6.452%,17.11%,0.4926%
O=S(=O)(N1CCCC1)N1CC[C@H](c2ccccc2)[C@H]2NCCCC[C@H]21,8.625%,0.9408%,-1.46%,26.32%,0.7463%
CC[C@@H](c1ccccc1)n1c(CCN)n[nH]c1=O,6.796%,-10.48%,3.133%,16.48%,4.95%

The values are deposited in ChEMBL (CHEMBL3988442, “University of Dundee, Small-Polar-MMV Screening Library” (2021)).